Results deposited as PubChem BioAssay AID652272 (Drosophila RNAi Screening Center, 2013).

- Purpose: 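Genome-wide knock-down search for components of Hedgehog signalling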 (primary screen)
- System: Drosophila clone 8 (Cl8) cells
- Knock-down reagent: long dsRNA against Drosophila genes
- Measured: 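Firefly light from a Hedgehog-responsive ptc promoter reporter and Renilla reference light, both read on a plate reader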
- Scale: firefly Hh reporter signal: higher = more ptc reporter light; Renilla reference signal: higher = more Renilla control light
- Hit rule: 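Called a hit if the two-replicate mean z-score lies below -2 or above +3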
- Calls: active = hit: reporter lowered or raised; inactive = not a hit
The deposit covers about 21,000 reagents; shown is a random part of those that have a named target and a result. In the full data, 503 (2.4%) were called active. 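Raw plate light values, not normalised; calls rest on replicate z-scores that were not deposited; hits include reporter decreases as well as increases.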 A number with no mark means an inactive call. The numbers tell different reagents against one gene apart. No sequences are given here. The record does not give: the amount of reagent, the time to read-out.

For fra, what does the deposit list?
firefly Hh reporter signal, replicate 1: 65734; firefly Hh reporter signal, replicate 2: 41000; Renilla reference signal, replicate 1: 1664; Renilla reference signal, replicate 2: 3289

With SAK, what was measured?
firefly Hh reporter signal, replicate 1: 84422; firefly Hh reporter signal, replicate 2: 69899; Renilla reference signal, replicate 1: 2881; Renilla reference signal, replicate 2: 1972

What did the screen give for bchs?
firefly Hh reporter signal, replicate 1: 85413; firefly Hh reporter signal, replicate 2: 41978; Renilla reference signal, replicate 1: 2119; Renilla reference signal, replicate 2: 3702

What is on record for shu?
firefly Hh reporter signal, replicate 1: 92328; firefly Hh reporter signal, replicate 2: 80180; Renilla reference signal, replicate 1: 4156; Renilla reference signal, replicate 2: 3388

For Sas-6, what was measured?
firefly Hh reporter signal, replicate 1: 1.04e5; firefly Hh reporter signal, replicate 2: 1.13e5; Renilla reference signal, replicate 1: 3895; Renilla reference signal, replicate 2: 3316

With CG31267, what was measured?
firefly Hh reporter signal, replicate 1: 89936; firefly Hh reporter signal, replicate 2: 1.09e5; Renilla reference signal, replicate 1: 2008; Renilla reference signal, replicate 2: 7557

How did the screen score C3G #1?
firefly Hh reporter signal, replicate 1: 88896; firefly Hh reporter signal, replicate 2: 3.27e5; Renilla reference signal, replicate 1: 3600; Renilla reference signal, replicate 2: 12058

With C3G #2, what was measured?
firefly Hh reporter signal, replicate 1: 98936; firefly Hh reporter signal, replicate 2: 2.68e5; Renilla reference signal, replicate 1: 3540; Renilla reference signal, replicate 2: 9463

How did the screen score CG8079 #1?
firefly Hh reporter signal, replicate 1: 1.23e5; firefly Hh reporter signal, replicate 2: 1.18e5; Renilla reference signal, replicate 1: 5060; Renilla reference signal, replicate 2: 4144

What did the screen give for CG8079 #2?
firefly Hh reporter signal, replicate 1: 62605; firefly Hh reporter signal, replicate 2: 64940; Renilla reference signal, replicate 1: 1504; Renilla reference signal, replicate 2: 4187

With CG8927, what does the deposit list?
firefly Hh reporter signal, replicate 1: 86768; firefly Hh reporter signal, replicate 2: 88380; Renilla reference signal, replicate 1: 2129; Renilla reference signal, replicate 2: 2060

Which result is listed for sol?
firefly Hh reporter signal, replicate 1: 52328; firefly Hh reporter signal, replicate 2: 2.24e5; Renilla reference signal, replicate 1: 1117; Renilla reference signal, replicate 2: 9403
